Measured values from the supplement of paper PMC4635364.
Counter-ions that a name gives are not always drawn. Some of the results follow. Single values are uncertain here, since repeats match poorly.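 Human fetal ventral-midbrain neural progenitor line ReNCell VM, differentiated without mitogens. Images stained for doublecortin (early neurons) or tyrosine hydroxylase (dopaminergic neurons) were scored by blinded raters against untreated wells (0 = no change). Repeats and both raters were averaged, and compounds averaging 2 or higher were picked as hits for retesting.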

The compounds below were run on ReNCell VM (assay: neuronal differentiation score (DCX+ cell fraction vs untreated, manual image score) (score (-3 to 3)); higher = more neuronal differentiation). Conditions: library: Phytochemical; 2 uM; 2 weeks.

SMILES | neuronal differentiation score
COc1cc(O)cc(O)c1C(=O)/C=C/c1ccccc1 [Cardamonin] | inactive: 0
COc1c2c(c(OC)c3c(=O)c4ccccc4[nH]c13)OCO2 [Xanthevodine] | inactive: 0
COc1ccc2c(OC)c3ccoc3nc2c1OC [Skimmianine] | inactive: 0

Same assay, conditions: library: Prestwick; 2 uM; 2 weeks

SMILES | neuronal differentiation score
CC(=O)Nc1c(I)c(C(=O)N[C@H]2C(O)O[C@H](CO)[C@@H](O)[C@@H]2O)c(I)c(N(C)C(C)=O)c1I (some centres undefined) [Metrizamide] | inactive: 0
Cc1c(Cl)cccc1Nc1ncccc1C(=O)O [Clonixin Lysinate] | inactive: 0
C[C@H]1C[C@@H]2[C@H]([C@@H](O)C[C@@]3(C)[C@H]2CC[C@]3(O)C(=O)CO)[C@@]2(C)C=CC(=O)C=C12 [Methylprednisolone, 6-alpha] | inactive: 0
CC(C)NC[C@H](O)COc1cccc2ccccc12 [(S)-propranolol hydrochloride] | inactive: 0
COc1cccc(N(C)C(=S)Oc2ccc3c(c2)CCCC3)n1 [Liranaftate] | inactive: 0
CCN1CCCC(OC(=O)C(c2ccccc2)c2ccccc2)C1 (centres undefined) [Piperidolate hydrochloride] | inactive: 0

Same assay, conditions: library: Spectrum; 2 uM; 2 weeks

SMILES | neuronal differentiation score
CC(=O)[C@H]1CC[C@H]2[C@@H]3CC=C4C[C@@H](OC(=O)CCC(=O)O)CC[C@]4(C)[C@H]3CC[C@]12C | inactive: 0
Cc1c(-c2cnccn2)ssc1=S | inactive: 0
O=C(CCCCCCCCCCCCC1CCCC1)Nc1ccc(S(=O)(=O)c2ccc(NC(=O)CCCCCCCCCCCCC3CCCC3)cc2)cc1 | inactive: 0
CN[C@@H]1[C@@H](O)[C@@H](O[C@@H]2[C@@H](O)[C@H](O[C@H]3OC(CN)=CC[C@H]3N)[C@@H](N)C[C@H]2N)OC[C@]1(C)O | inactive: 0
C[N+](C)(C)CCO.[Cl-] | inactive: 0
CC[C@H](C)C(=O)O[C@H]1C[C@@H](C)C=C2C=C[C@H](C)[C@H](CC[C@@H]3C[C@@H](O)CC(=O)O3)[C@H]21 | inactive: 0
COc1c(OC)c2occc2c2oc(=O)ccc12 | inactive: 0
COc1ccc(Cl)cc1C(=O)NCCc1ccc(S(=O)(=O)NC(=O)NC2CCCCC2)cc1 | inactive: 0
CC1(C)S[C@@H]2[C@H](NC(=O)C(C(=O)O)c3ccccc3)C(=O)N2[C@H]1C(=O)O (some centres undefined) | inactive: 0
CC(C)=CCc1c2c(c3occ(-c4ccc(O)c(O)c4)c(=O)c3c1O)C=CC(C)(C)O2 | inactive: 0
CCOC(=O)C1=C(C)NC(C)=C(C(=O)OC)C1c1cccc(Cl)c1Cl (centres undefined) | inactive: 1
Nc1nc(N)c2nc(CNc3ccc(C(=O)N[C@@H](CCC(=O)O)C(=O)O)cc3)cnc2n1 | inactive: 0
Cc1c(C(=O)O)c(O)cc2c1C(=O)c1c(O)c([C@@H]3O[C@H](CO)[C@@H](O)[C@H](O)[C@H]3O)c(O)c(O)c1C2=O | inactive: 0
Clc1cccc(Cl)c1NC1=NCCN1 | inactive: 0
C[C@H]1COc2c(N3CCN(C)CC3)c(F)cc3c(=O)c(C(=O)O)cn1c23 | inactive: 0
CCC(CCC(C)C1CCC2C3CCC4CC(O)CCC4(C)C3CCC12C)C(C)C (centres undefined) | inactive: 0
C[C@H](CCC(=O)O)[C@H]1CC[C@H]2[C@@H]3[C@H](O)C[C@@H]4C[C@H](O)CC[C@]4(C)[C@H]3CC[C@]12C | inactive: 1
CCCCCOC(=O)Nc1nc(=O)n([C@@H]2O[C@H](C)[C@@H](O)[C@H]2O)cc1F | inactive: 0
COc1c(O)cccc1O | inactive: 0
CCCCOc1ccc(CC(=O)NO)cc1 | inactive: 0

Sorted by length of the SMILES (low to high): part of the list above.
SMILES | neuronal differentiation score
CCCCCOC(=O)Nc1nc(=O)n([C@@H]2O[C@H](C)[C@@H](O)[C@H]2O)cc1F | inactive: 0
C[C@H](CCC(=O)O)[C@H]1CC[C@H]2[C@@H]3[C@H](O)C[C@@H]4C[C@H](O)CC[C@]4(C)[C@H]3CC[C@]12C | inactive: 1
CC[C@H](C)C(=O)O[C@H]1C[C@@H](C)C=C2C=C[C@H](C)[C@H](CC[C@@H]3C[C@@H](O)CC(=O)O3)[C@H]21 | inactive: 0
